The target in assay [1] is cyno MAdCAM protein (cyno). Briefly: Octet.
The target of assay [2] is cyno MAdCAM protein (cyno). In words: ELISA.

Results are given in words; binding and its absence hold for the method and conditions named. Binding can be weak; no strength is given.

B1: MAdCAM antibody Table 1 clone 6 (scFv)
scFv: EVQLLESGGGLVQPGGSLRLSCAASGFTFNNYAFHWVRQAPGKGLEWVSRINSYGTSTTYADSVKGRFTISRDNSKNTLYLQMNSLRAEDTAVYYCAREGPVAGYWYFDLWGQGTLVTVSSGGGGSGGGGSGGGGSGGGGSDIQMTQSPSSLSASVGDRVTITCRASQIIGTNLAWYQQKPGKAPKLLIYGASSLQSGVPSRFSGSGSGTDFTLTISSLQPEDFATYYCQQSYRLPFTFGQGTKVEIK
For the molecule B1, in assay [1], the binding result was “binds”.

B2: MAdCAM Antibody Table 2 clone 75 (antibody, V domains shown)
VH: EVQLLESGGGLVQPGGSLRLSCAASGFTFSDFWMHWVRQAPGKGLEWISYISGDSGYTNYADSVKGRFTISRDNSKNTLYLQMNSLRAEDTAVYYCARDRPYYYYMDVWGKGTTVTVSS
VL: DIQMTQSPSSLSASVGDRVTITCRASQSVSRSLAWYQQKPGKAPKLLIYAASSLQSGVPSRFSGSGSGTDFTLTISSLQPEDFATYYCQQYKSYPVTFGQGTKVEIK
As to B2, the binding result in assay [1] and in assay [2] was “binds” in each case.

B3: MAdCAM Antibody Table 2 clone 82 (antibody, V domains shown)
VH: QVQLVQSGAEVKKPGASVKVSCKASGYTFTRHWIHWVRQAPGQGLEWMGWINVKTGGAGYAQKFQGRVTMTRDTSTSTVYMELSSLRSEDTAVYYCARESSGWYGTDVWGQGTTVTVSS
VL: DIQMTQSPSSLSASVGDRATITCRASQSISNYLAWYQQKPGKAPKLLIYAASSLQSGVPSRFSGSGSGTDFTLTISSLQPEDFATYYCQQSNSFPLTFGGGTKVEIK
Consider B3, for which, in assay [1], the binding result is on record as “binds”.

B4: MAdCAM antibody Table 1 clone 2 (scFv)
scFv: QVQLVQSGAEVKKPGASVKVSCKASGYPFIGYYLHWVRQAPGQGLEWMGIINPSGGSTSYAQKFQGRVTMTRDTSTSTVYMELSSLRSEDTAVYYCAREGRLSYGMDAWGQGTLVTVSSGGGGSGGGGSGGGGSGGGGSDIQMTQSPSSLSASVGDRVTITCRASQSISSYLAWYQQKPGKAPKLLIYGASTLESGVPSRFSGSGSGTDFTLTISSLQPEDFATYYCQQTWGPPFTFGQGTKLEIK
Consider B4, for which the binding result in assay [1] is given as “binds”.

B5: MAdCAM Antibody Table 2 clone 7 (antibody, V domains shown)
VH: EVQLLESGGGLVQPGGSLRLSCAASGFTFSDYQMSWVRQAPGKGLEWVAIISHADGGFKDYADSVKGRFTISRDNSKNTLYLQMNSLRAEDTAVYYCAKPYSSGWSAVYYFDYWGQGTLVTVSS
VL: DIQMTQSPSSLSASVGDRVTITCRASRGITNDLGWYQQKPGKAPKLLIYAASTLQSGVPSRFSGSGSGTDFTLTISSLQPEDFATYYCQQAYSFPWTFGQGTKVEIK
As to B5, the binding result in assay [1] is on record as “no binding”.

B6: MAdCAM antibody Table 1 clone 4 (scFv)
scFv: QVQLVQSGAEVKKPGASVKVSCKASGGTFSSYAISWVRQAPGQGLEWMGSINPSGDTTSYAQKFQGRVTMTRDTSTSTVYMELSSLRSEDTAVYYCAKDKAQWLVGYFDYWGQGTLVTVSSGGGGSGGGGSGGGGSGGGGSDIQMTQSPSSLSASVGDRVTITCQASQDISNSLNWYQQKPGKAPKLLIYAASSLQSGVPSRFSGSGSGTDFTLTISSLQPEDFATYYCQQSYSSVITFGQGTKVEIK
B6: the binding entry in assay [1] is given as “binds”.

B7: MAdCAM antibody Table 1 clone 7 (scFv)
scFv: QVQLVQSGAEVKKPGASVKVSCKASGYTFTGYHIHWVRQAPGQGLEWMGIINPSGGSTIYAQKFQGRVTMTRDTSTSTVYMELSSLRSEDTAVYYCAKDWSSWYLGPFDYWGQGTLVTVSSGGGGSGGGGSGGGGSGGGGSDIQMTQSPSSLSASVGDRVTITCRASQNISSSLNWYQQKPGKAPKLLIYAASSLQSGVPSRFSGSGSGTDFTLTISSLQPEDFATYYCQQSYTTPYTFGQGTKVEIK
B7: the binding entry in assay [1] is given as “binds”.

B8: MAdCAM Antibody Table 2 clone 6 (antibody, V domains shown)
VH: EVQLLESGGGLVQPGGSLRLSCAASGFTFNNYAFHWVRQAPGKGLEWVSRINSYGTSTTYADSVKGRFTISRDNSKNTLYLQMNSLRAEDTAVYYCAREGPVAGYWYFDLWGQGTLVTVSS
VL: DIQMTQSPSSLSASVGDRVTITCRASQIIGTNLAWYQQKPGKAPKLLIYGASSLQSGVPSRFSGSGSGTDFTLTISSLQPEDFATYYCQQSYRLPFTFGQGTKVEIK
On to B8, for which the binding result in assay [1] and in assay [2] was “binds” each time.

B9: MAdCAM Antibody Table 2 clone 24 (antibody, V domains shown)
VH: EVQLVESGGGLVKPGGSLRLSCAASGFTFSSYWMSWVRQAPGKGLEWVSRISSDGRITTYAAPVKGRFTISRDDSKNTLYLQMNSLKTEDTAVYYCARGTSYCTGGVCDIDYWGQGTLVTVSS
VL: DIQMTQSPSSLSASVGDRVTITCRASQSIGRNLNWYQQKPGKAPKLLIYSASNLQSGVPSRFSGSGSGTDFTLTISSLQPEDFATYYCQQSYSIPLTFGPGTKVDIK
For B9, in assay [1], the binding result is given as “no binding”.

B10: MAdCAM Antibody Table 2 clone 84 (antibody, V domains shown)
VH: QVQLVQSGAEVKKPGASVKVSCKASGGTFSSSAISWVRQAPGQGLEWMGWISAYNGYTNYAQKFQGRVTMTRDTSTSTVYMELSSLRSEDTAVYYCASRVHSGGSYPDDYWGQGTLVTVSS
VL: DIQMTQSPSSLSASVGDRVTITCQASEHIYNYLNWYQQKPGKAPKLLIYAASSLQSGVPSRFSGSGSGTDFTLTISSLQPEDFATYYCQQTDSIPITFGQGTKVEIK
Consider B10, for which the binding entry in assay [1] was “binds”.

B11: MAdCAM Antibody Table 2 clone 14 (antibody, V domains shown)
VH: QVQLVQSGAEVKKPGSSVKVSCKASGYTFTNYYMHWVRQAPGQGLEWMGGIIPIVDGVKYAQKFQGRVTITADESTSTAYMELSSLRSEDTAVYYCAKGQFTGNYYYGMDYWGQGTLVTVSS
VL: DIQMTQSPSSLSASVGDRVTITCQANQDISNYLNWYQQKPGKAPKLLIYRASKLEAGVPSRFSGSGSGTDFTLTISSLQPEDFATYYCQQSSEIPYSFGQGTKVEIK
On to B11, for which the binding result in assay [1] was “no binding”.

B12: MAdCAM antibody Table 1 clone 1 (scFv)
scFv: EVQLLESGGGLVQPGGSLRLSCAASGFTFSSYGMHWVRQAPGKGLEWVAVISDDGSDKYYADSVKGRFTISRDNSKNTLYLQMNSLRAEDTAVYYCTTSKYYYYYGMDVWGQGTTVTVSSGGGGSGGGGSGGGGSGGGGSDIQMTQSPSSLSASVGDRVTITCQASQDISKSLNWYQQKPGKAPKLLIYAASSLQSGVPSRFSGSGSGTDFTLTISSLQPEDFATYYCQQGYSTPLTFGGGTKVEIK
For the molecule B12, the binding result in assay [1] is recorded as “binds”.

B13: MAdCAM Antibody Table 2 clone 83 (antibody, V domains shown)
VH: EVQLLESGGGLVQPGGSLRLSCAASGFTFSSYWMHWVRQAPGKGLEWVAAISYDGKYKDYEDSVKGRFTISRDNSKNTLYLQMNSLRAEDTAVYYCARENKQWLASFDYWGQGTLVTVSS
VL: DIQMTQSPSSLSASVGDRVTITCQASQDISNFVNWYQQKPGKAPKLLIYAANLRSGVPSRFSGSGSGTDFTLTISSLQPEDFATYYCQQANSFPVTFGPGTKVDIK
As to B13, the binding result in assay [1] is reported as “binds”.

B14: MAdCAM antibody Table 1 clone 9 (scFv)
scFv: EVQLLESGGGLVQPGGSLRLSCAASGFTFSDYYMNWVRQAPGKGLEWVSVIGESGGSTYYADSVKGRFTISRDNSKNTLYLQMNSLRAEDTAVYYCAADPVSRWPKHGGGDYWGQGTLVTVSSGGGGSGGGGSGGGGSGGGGSDIQMTQSPSSLSASVGDRVTITCRASQGISSSLAWYQQKPGKAPKLLIYAASTLQSGVPSRFSGSGSGTDFTLTISSLQPEDFATYYCQQSYSTPWTFGQGTKVEIK
As to B14, in assay [1], the binding result is on record as “binds”.

B15: MAdCAM antibody Table 1 clone 5 (scFv)
scFv: EVQLLESGGGLVQPGGSLRLSCAASGFTFSSYWMHWVRQAPGKGLEWVSSISPGGSNIDYADSVKGRFTISRDNSKNTLYLQMNSLRAEDTAVYYCAREVQLSHYDYWGQGTLVTVSSGGGGSGGGGSGGGGSGGGGSDIQMTQSPSSLSASVGDRVTITCRASQGISNSLAWYQQKPGKAPKLLIYGASSLQSGVPSRFSGSGSGTDFTLTISSLQPEDFATYYCQQANSFPFTFGQGTKVEIK
As to B15, the binding result in assay [1] is “binds”.

Values taken from patent publication US20230235004A1.
